From paper PMC8129509
Results are given in words; binding and its absence hold for the method and conditions named. Binding seen in cells or lysates may run through a third protein. Some binding calls cover weakened binding; strength is not graded here. Tags and fused reporters may be left off the sequences shown.

Protein sequences, listed by entry. Tags and fused reporters are not part of them. Residues count along the entry.
UniProt Q9QUK6, residues 26-835: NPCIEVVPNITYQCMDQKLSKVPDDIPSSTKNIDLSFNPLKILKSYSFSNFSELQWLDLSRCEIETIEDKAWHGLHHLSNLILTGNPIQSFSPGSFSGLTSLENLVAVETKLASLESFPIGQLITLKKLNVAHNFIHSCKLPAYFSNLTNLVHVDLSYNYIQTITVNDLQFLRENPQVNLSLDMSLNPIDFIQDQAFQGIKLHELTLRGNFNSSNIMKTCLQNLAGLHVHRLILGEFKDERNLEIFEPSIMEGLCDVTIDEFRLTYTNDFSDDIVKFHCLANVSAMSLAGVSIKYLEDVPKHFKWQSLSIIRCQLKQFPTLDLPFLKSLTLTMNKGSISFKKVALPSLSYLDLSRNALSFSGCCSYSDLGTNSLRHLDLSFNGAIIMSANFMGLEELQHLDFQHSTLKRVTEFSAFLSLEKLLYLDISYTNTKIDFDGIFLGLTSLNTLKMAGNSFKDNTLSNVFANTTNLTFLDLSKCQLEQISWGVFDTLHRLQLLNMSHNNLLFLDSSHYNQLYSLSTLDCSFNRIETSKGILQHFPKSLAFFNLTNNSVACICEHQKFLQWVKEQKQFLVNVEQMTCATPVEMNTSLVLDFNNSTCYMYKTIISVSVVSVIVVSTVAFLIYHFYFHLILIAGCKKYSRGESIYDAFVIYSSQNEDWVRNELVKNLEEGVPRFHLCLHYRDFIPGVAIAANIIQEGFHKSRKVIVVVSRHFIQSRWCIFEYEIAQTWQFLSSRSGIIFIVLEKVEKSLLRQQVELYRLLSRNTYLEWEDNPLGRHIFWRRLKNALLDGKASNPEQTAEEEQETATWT

Target: T1, Mycobacterium tuberculosis Rv2145c, recombinant His-tagged (Mycobacterium tuberculosis H37Rv) (UniProt P9WMU1)
T1 sequence: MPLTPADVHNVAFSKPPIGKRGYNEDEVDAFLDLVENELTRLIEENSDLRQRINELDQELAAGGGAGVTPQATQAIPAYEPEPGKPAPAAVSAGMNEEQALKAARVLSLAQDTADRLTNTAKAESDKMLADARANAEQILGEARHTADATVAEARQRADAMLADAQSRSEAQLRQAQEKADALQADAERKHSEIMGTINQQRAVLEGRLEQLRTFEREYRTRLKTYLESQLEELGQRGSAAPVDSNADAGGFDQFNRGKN
Assay: co-IP; only the target purified

## TLR4 (from UniProt Q9QUK6 26-835) (receptor)
  binding: binds
